Results from PubChem BioAssay AID270 (DTP/NCI, 2004).
The list does not hold the whole screen: it is rich in T/C values a quarter to a half above the control, in often repeated tests (any T/C) and in doses without a T/C. Other doses and runs of a compound stand elsewhere. T/C: endpoint of the treated group in % of that of the vehicle group. Schedules are NCI's codes, taken here to give the interval after Q, in days (D) or hours (H), and the number of doses after X. Some entries give survivors of the animals treated and no T/C: the source holds a T/C of zero for them, seemingly a mark for toxic or unscored doses. Some survivor counts are full or nearly so, which does not show that the dose was tolerated: survival well below the control is almost never listed, so the zero probably covers shortened survival too. Survivors were counted at the toxicity check, usually on the fifth day, unless a day is given; later deaths do not show. Some doses were run more than once; the values are given in rising order. Where survival is the endpoint, this PubChem deposit counts one and a half times the control or more as active, and values a quarter to a half above the control carry no call in these data; other NCI protocols may use other cut-offs. Some T/C values are followed by the survivors on the day toxicity was checked, most often the fifth; where none is given, no animal had died by that day.

Test system: BDF1 mice, s.c. Lewis lung carcinoma, T/C %
Assay: NCI In Vivo Anticancer Drug Screen. Data for tumor model Lewis Lung Carcinoma (subcutaneous) in B6D2F1 (BDF1) mice
Method in brief: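 Transplanted tumors grown in mice; compound vs vehicle dosing; endpoint survival or tumor size; ratio T/C.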

[1] = T/C endpoint: median survival time, dose: 64.0 mg/kg/injection, schedule: Q01DX005 (ip), vehicle: DMSO, higher T/C = longer survival
[2] = T/C endpoint: median survival time, dose: 128.0 mg/kg/injection, schedule: Q01DX005 (ip), vehicle: DMSO, higher T/C = longer survival
[3] = T/C endpoint: median survival time, dose: 10.0 mg/kg/injection, schedule: Q01DX009 (ip), vehicle: saline with Tween-80, higher T/C = longer survival
[4] = T/C endpoint: median survival time, dose: 20.0 mg/kg/injection, schedule: Q01DX009 (ip), vehicle: saline with Tween-80, higher T/C = longer survival
[5] = T/C endpoint: median survival time, dose: 25.0 mg/kg/injection, schedule: Q01DX009 (ip), vehicle: Klucel (hydroxypropylcellulose) (HPC), higher T/C = longer survival
[6] = T/C endpoint: median survival time, dose: 50.0 mg/kg/injection, schedule: Q01DX009 (ip), vehicle: Klucel (hydroxypropylcellulose) (HPC), higher T/C = longer survival
[7] = T/C endpoint: median survival time, dose: 100.0 mg/kg/injection, schedule: Q01DX009 (ip), vehicle: Klucel (hydroxypropylcellulose) (HPC), higher T/C = longer survival
[8] = T/C endpoint: median survival time, dose: 10.0 mg/kg/injection, schedule: Q01DX009 (ip), vehicle: Klucel (hydroxypropylcellulose) (HPC), higher T/C = longer survival
[9] = T/C endpoint: median survival time, dose: 20.0 mg/kg/injection, schedule: Q01DX009 (ip), vehicle: Klucel (hydroxypropylcellulose) (HPC), higher T/C = longer survival
[10] = T/C endpoint: median survival time, dose: 40.0 mg/kg/injection, schedule: Q01DX009 (ip), vehicle: Klucel (hydroxypropylcellulose) (HPC), higher T/C = longer survival

CC1=C(/C=C/C(C)=C/C=C/C(C)=C/C=O)C(C)(C)CCC1
T/C (T/C endpoint: median survival time, dose: 4.0 mg/kg/injection, schedule: Q01DX005 (ip), vehicle: saline with Tween-80, higher T/C = longer survival): 137 % of control | survivor count (T/C endpoint: median survival time, dose: 8.0 mg/kg/injection, schedule: Q01DX005 (ip), vehicle: saline + alcohol, higher T/C = longer survival): 10 of 10 | T/C (T/C endpoint: median survival time, dose: 8.0 mg/kg/injection, schedule: Q01DX005 (ip), vehicle: saline with Tween-80, higher T/C = longer survival): 134 % of control | survivor count (T/C endpoint: median survival time, dose: 16.0 mg/kg/injection, schedule: Q01DX005 (ip), vehicle: DMSO, higher T/C = longer survival): 3 of 10 | survivor count (T/C endpoint: median survival time, dose: 16.0 mg/kg/injection, schedule: Q01DX005 (ip), vehicle: saline + alcohol, higher T/C = longer survival): 10 of 10 | T/C (T/C endpoint: median survival time, dose: 16.0 mg/kg/injection, schedule: Q01DX005 (ip), vehicle: saline with Tween-80, higher T/C = longer survival): 127 % of control | survivor count (T/C endpoint: median survival time, dose: 32.0 mg/kg/injection, schedule: Q01DX005 (ip), vehicle: DMSO, higher T/C = longer survival): 0 of 10 | survivor count (T/C endpoint: median survival time, dose: 32.0 mg/kg/injection, schedule: Q01DX005 (ip), vehicle: saline + alcohol, higher T/C = longer survival): 10 of 10 | T/C (T/C endpoint: median survival time, dose: 32.0 mg/kg/injection, schedule: Q01DX005 (ip), vehicle: saline with Tween-80, higher T/C = longer survival): 137 % of control | T/C [1]: 145 % of control | survivor count [1]: 0 of 10 | survivor count (T/C endpoint: median survival time, dose: 64.0 mg/kg/injection, schedule: Q01DX005 (ip), vehicle: saline + alcohol, higher T/C = longer survival): 9 of 9 | T/C (T/C endpoint: median survival time, dose: 64.0 mg/kg/injection, schedule: Q01DX005 (ip), vehicle: saline with Tween-80, higher T/C = longer survival): 125 % of control | T/C [2]: 146 % of control | survivor count [2]: 0 of 10 | survivor count (T/C endpoint: median survival time, dose: 128.0 mg/kg/injection, schedule: Q01DX005 (ip), vehicle: saline + alcohol, higher T/C = longer survival): 8 of 10 | survivor count (T/C endpoint: median survival time, dose: 128.0 mg/kg/injection, schedule: Q01DX005 (ip), vehicle: saline with Tween-80, higher T/C = longer survival): 3 of 10 | survivor count (T/C endpoint: median survival time, dose: 256.0 mg/kg/injection, schedule: Q01DX005 (ip), vehicle: DMSO, higher T/C = longer survival): 0 of 10 | survivor count (T/C endpoint: median survival time, dose: 256.0 mg/kg/injection, schedule: Q01DX005 (ip), vehicle: saline + alcohol, higher T/C = longer survival): 0 of 10 | survivor count (T/C endpoint: median survival time, dose: 256.0 mg/kg/injection, schedule: Q01DX005 (ip), vehicle: saline with Tween-80, higher T/C = longer survival): 0 of 10

NCCCOc1ccc([N+](=O)[O-])cc1Cl
T/C (T/C endpoint: median survival time, dose: 12.5 mg/kg/injection, schedule: Q01DX009 (ip), vehicle: saline, higher T/C = longer survival): 136 % of control | T/C (T/C endpoint: median survival time, dose: 25.0 mg/kg/injection, schedule: Q01DX009 (ip), vehicle: saline, higher T/C = longer survival): 146 % of control | survivor count (T/C endpoint: median survival time, dose: 200.0 mg/kg/injection, schedule: Q01DX009 (ip), vehicle: saline, higher T/C = longer survival): 2 of 10

[I][Hg][CH2]C1COCC([CH2][Hg][I])O1.[I][Hg][CH2]C1COCC([CH2][Hg][I])O1 (centres undefined)
survivor count (T/C endpoint: mean tumor weight, dose: 44.0 mg/kg/injection, schedule: Q01DX011 (ip), vehicle: other, higher T/C = larger tumour): 0 of 6

S=c1nc[nH]c2c1ncn2C1CCCO1 (centres undefined)
survivor count (T/C endpoint: mean tumor weight, dose: 100.0 mg/kg/injection, schedule: Q01DX011 (ip), vehicle: other, higher T/C = larger tumour): 3 of 6 | survivor count (T/C endpoint: mean tumor weight, dose: 200.0 mg/kg/injection, schedule: Q01DX011 (ip), vehicle: other, higher T/C = larger tumour): 0 of 6 | survivor count (T/C endpoint: mean tumor weight, dose: 400.0 mg/kg/injection, schedule: Q01DX011 (ip), vehicle: other, higher T/C = larger tumour): 0 of 6

Cc1cnc(/C=N\NC(N)=S)c2cccc(N)c12
T/C (T/C endpoint: median survival time, dose: 3.12 mg/kg/injection, schedule: Q01DX009 (ip), vehicle: Klucel (hydroxypropylcellulose) (HPC), higher T/C = longer survival): 127 % of control | T/C (T/C endpoint: median survival time, dose: 3.13 mg/kg/injection, schedule: Q01DX009 (ip), vehicle: saline with Tween-80, higher T/C = longer survival): 125 % of control | survivor count (T/C endpoint: median survival time, dose: 50.0 mg/kg/injection, schedule: Q01DX009 (ip), vehicle: saline with Tween-80, higher T/C = longer survival): 10 of 10

C=C1C(=O)O[C@@H]2[C@H](O)[C@@H](C)[C@@H]3C=CC(=O)[C@@]3(C)[C@H](OC(=O)C=C(C)C)[C@H]12
survivor count (T/C endpoint: median survival time, dose: 1.25 mg/kg/injection, schedule: Q01DX009 (ip), vehicle: saline with Tween-80, higher T/C = longer survival): 10 of 10 | T/C (T/C endpoint: median survival time, dose: 2.5 mg/kg/injection, schedule: Q01DX009 (ip), vehicle: Klucel (hydroxypropylcellulose) (HPC), higher T/C = longer survival): 143 % of control | survivor count (T/C endpoint: median survival time, dose: 2.5 mg/kg/injection, schedule: Q01DX009 (ip), vehicle: saline with Tween-80, higher T/C = longer survival): 10 of 10 | T/C (T/C endpoint: median survival time, dose: 5.0 mg/kg/injection, schedule: Q01DX009 (ip), vehicle: Klucel (hydroxypropylcellulose) (HPC), higher T/C = longer survival): 125 % of control | survivor count (T/C endpoint: median survival time, dose: 5.0 mg/kg/injection, schedule: Q01DX009 (ip), vehicle: saline with Tween-80, higher T/C = longer survival): 10 of 10 | survivor count [3]: 9 of 10 | survivor count [4]: 6 of 10 and 9 of 10

O=C1CN=C(c2ccc[nH]2)c2cc(Cl)ccc2N1
T/C (T/C endpoint: mean tumor weight, dose: 10.0 mg/kg/injection, schedule: Q01DX011 (ip), vehicle: other, evaluated on day 12, higher T/C = larger tumour): 128 % of control | T/C (T/C endpoint: mean tumor weight, dose: 20.0 mg/kg/injection, schedule: Q01DX011 (ip), vehicle: other, evaluated on day 12, higher T/C = larger tumour): 134 % of control

C[C@@H](N)[C@@H](O)c1ccccc1
survivor count (T/C endpoint: mean tumor weight, dose: 25.0 mg/kg/injection, schedule: Q01DX011 (ip), vehicle: saline, higher T/C = larger tumour): 0 of 6 | survivor count (T/C endpoint: mean tumor weight, dose: 50.0 mg/kg/injection, schedule: Q01DX011 (ip), vehicle: saline, higher T/C = larger tumour): 0 of 6 | survivor count (T/C endpoint: mean tumor weight, dose: 100.0 mg/kg/injection, schedule: Q01DX011 (ip), vehicle: saline, higher T/C = larger tumour): 0 of 6 | survivor count (T/C endpoint: mean tumor weight, dose: 200.0 mg/kg/injection, schedule: Q01DX011 (ip), vehicle: saline, higher T/C = larger tumour): 0 of 6

O=[N+]([O-])c1ccc(Cl)c2c([N+](=O)[O-])cccc12
survivor count [5]: 10 of 10

Nc1nc(=S)c2[nH]c(N=Nc3ccc(S(=O)(=O)Nc4ncccn4)cc3)nc2[nH]1
survivor count (T/C endpoint: median survival time, dose: 12.5 mg/kg/injection, schedule: Q01DX009 (ip), vehicle: Klucel (hydroxypropylcellulose) (HPC), higher T/C = longer survival): 10 of 10 | survivor count [5]: 10 of 10 | survivor count [6]: 10 of 10 | survivor count [7]: 10 of 10 | survivor count (T/C endpoint: median survival time, dose: 200.0 mg/kg/injection, schedule: Q01DX009 (ip), vehicle: Klucel (hydroxypropylcellulose) (HPC), higher T/C = longer survival): 10 of 10

C=CC(=O)NCNC(=O)C=C
survivor count (T/C endpoint: mean tumor weight, dose: 150.0 mg/kg/injection, schedule: Q01DX011 (ip), vehicle: saline, higher T/C = larger tumour): 2 of 6

O=[N+]([O-])c1cc([N+](=O)[O-])c(Br)cc1Cl
survivor count [8]: 10 of 10 | survivor count [9]: 10 of 10 | survivor count [10]: 0 of 10

N=C(N)Sc1cc(O)ccc1O
T/C (T/C endpoint: median survival time, dose: 37.5 mg/kg/injection, schedule: Q01DX009 (ip), vehicle: saline, higher T/C = longer survival): 149 % of control | T/C (T/C endpoint: median survival time, dose: 300.0 mg/kg/injection, schedule: Q01DX009 (ip), vehicle: saline, higher T/C = longer survival): 136 % of control [7 of 10 alive]

CC(C)=CCC/C(C)=C/CNCCc1c[nH]c2ccccc12
survivor count [6]: 1 of 10 | survivor count [7]: 0 of 10

CC(C)(C)C(=O)O
T/C (T/C endpoint: mean tumor weight, dose: 55.0 mg/kg/injection, schedule: Q01DX011 (ip), vehicle: other, evaluated on day 12, higher T/C = larger tumour): 134 % of control

COC(COC(N)=O)C1=C(N2CC2)C(=O)C(C)=C(N2CC2)C1=O (centres undefined)
survivor count (T/C endpoint: median survival time, dose: 0.06 mg/kg/injection, schedule: Q01DX009 (ip), vehicle: Klucel (hydroxypropylcellulose) (HPC), higher T/C = longer survival): 10 of 10 | survivor count (T/C endpoint: median survival time, dose: 2.0 mg/kg/injection, schedule: Q01DX009 (ip), vehicle: Klucel (hydroxypropylcellulose) (HPC), higher T/C = longer survival): 10 of 10

CS(=O)(=O)OCCCCOS(C)(=O)=O
survivor count (T/C endpoint: mean tumor weight, dose: 50.0 mg/kg/injection, schedule: Q01DX011 (ip), vehicle: carboxymethylcellulose (CMC), higher T/C = larger tumour): 1 of 10 | survivor count [8]: 10 of 10 | survivor count [3]: 10 of 10 | survivor count [9]: 10 of 10 | survivor count [4]: 9 of 10 | survivor count [10]: 8 of 10 | survivor count (T/C endpoint: median survival time, dose: 40.0 mg/kg/injection, schedule: Q01DX009 (ip), vehicle: saline with Tween-80, higher T/C = longer survival): 8 of 10 and 10 of 10 | survivor count (T/C endpoint: median survival time, dose: 80.0 mg/kg/injection, schedule: Q01DX009 (ip), vehicle: Klucel (hydroxypropylcellulose) (HPC), higher T/C = longer survival): 0 of 10 and 4 of 10 | survivor count (T/C endpoint: median survival time, dose: 80.0 mg/kg/injection, schedule: Q01DX009 (ip), vehicle: saline with Tween-80, higher T/C = longer survival): 4 of 10 and 5 of 10
